# Some of the results follow. This data set is noisy: repeats of one test often differ as much as different tests do.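 In a drug-repurposing library screen, luminescence reads luciferase driven by eight TEAD-binding elements, stably integrated into human kidney-derived cells. Compounds scoring over five robust Z scores above the plate mean are called hits.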
# Tested on: HEK293A TEAD-LUC reporter
# Experiment: TEAD-luciferase reporter activity (YAP activation), robust Z score vs plate; higher = stronger YAP/TEAD activation
# Settings: 24 h
Structure (SMILES),TEAD-luciferase reporter activity (compound concentration: 200 nM),TEAD-luciferase reporter activity (compound concentration: 2 uM),TEAD-luciferase reporter activity (compound concentration: 10 uM)
C=C(F)c1sc(CNCCCNc2cc(=O)c3ccccc3[nH]2)c(C)c1Br [bederocin],active: 7.25,inactive: -0.876,active: 5.13
CN1CCN(c2cc3c(nn2)Oc2ccccc2N3C)CC1 [Pipofezine],inactive: -0.648,–,inactive: -1.41
CC1CC(=O)NN=C1c1ccc2c(NCc3ccccc3)ncnc2c1 (configuration not stated),inactive: -1.96,inactive: -0.722,inactive: -1.32
O=C(Nc1cc(F)c(F)c(F)c1)c1ccc(F)c(S(=O)(=O)N2CCC(O)C(F)C2)c1 (configuration not stated),inactive: 2.05,inactive: -1.25,inactive: 3.14
CN(C)C1CC(c2c[nH]c3ccc(C[C@H]4COC(=O)N4)cc23)C1 (some centres not stated),inactive: -0.308,inactive: -0.92,inactive: 1.52
O=c1cc[nH]c(=S)[nH]1,inactive: -0.0784,inactive: -1.49,inactive: 1.21
CC(=O)/C=C(\C)c1ccc(-c2ccccc2)cc1 [xenipentone],inactive: -0.908,inactive: 0.18,inactive: 2.82
O=C1[C@@H]2[C@H]3CC[C@H](C3)[C@@H]2C(=O)N1CCCCN1CCN(c2ncccn2)CC1 [tandospirone],inactive: -0.771,inactive: 1.03,inactive: 0.459
O=C1NC(=O)C(c2cnc3ccccn23)=C1c1cn2c3c(cc(F)cc13)CN(C(=O)N1CCCCC1)CC2,inactive: -1.88,inactive: -3.83,inactive: -4.05
O=C(O)[C@H]1O[C@@H](Oc2cc3oc(-c4ccccc4)cc(=O)c3c(O)c2O)[C@H](O)[C@@H](O)[C@@H]1O,inactive: 2.68,inactive: -0.998,inactive: -0.788
CN(Cc1cnc2nc(N)nc(N)c2n1)c1ccc(C(=O)N[C@@H](CCC(=O)NCCCCCN)C(=O)O)cc1,inactive: 1.62,inactive: -1.17,inactive: -1.44
Cc1ccc(O)c(Cn2c(NC3CCN(CCN)CC3)nc3c(C)cccc32)n1,inactive: -1.19,inactive: 0.0941,inactive: -0.17
Cc1c(N2CC[C@H](N)C2)c(F)cn2c(=O)c(C(=O)O)cc(C3CC3)c12,inactive: -0.711,inactive: -1.16,inactive: -0.449
CCOc1ccc(C(=O)CCC(=O)N2CC=C(c3ccc(OC)cc3)CC2)cc1,inactive: -2.01,inactive: -0.0313,inactive: 3.84
CC(C)N1C(=O)N(CC2CCOCC2)C[C@]12C[C@H]1CC[C@@H](C2)N1CC[C@H](NC(=O)C1CCC(F)(F)CC1)c1ccccc1,inactive: -0.649,inactive: -0.662,inactive: 0.376
CCOC(=O)NCc1coc2ccc(S(=O)(=O)N(CC(C)C)C[C@@H](O)[C@H](Cc3ccccc3)NC(=O)O[C@H]3CO[C@H]4OCC[C@H]43)cc12,inactive: -0.927,inactive: 0.197,inactive: -1.5
CC(N)C(=O)NC(=O)C(CCCCN)NC(=O)C(Cc1ccccc1)NC(=O)C(Cc1c[nH]c2ccccc12)NC(=O)C(C)NC(=O)C(N)Cc1ccc2ccccc2c1 (configuration not stated) [Pralmorelin],inactive: -0.145,inactive: -1.5,inactive: -0.19
Nc1ncnc2c1ncn2[C@@H]1O[C@H](COP(=O)(O)OP(=O)(O)OP(=O)(O)OP(=O)(O)OC[C@H]2O[C@@H](n3cnc4c(N)ncnc43)[C@H](O)[C@@H]2O)[C@@H](O)[C@H]1O [Diadenosine tetraphosphate],inactive: -0.849,–,inactive: 1.66
C[C@@H](Nc1ncnc2[nH]c(-c3ccc(O)cc3)cc12)c1ccccc1,inactive: -1.15,inactive: -0.567,inactive: -1.94
CC1(C)S[C@@H]2[C@H](NC(=O)[C@H](NC(=O)N(CCCO)C(=O)c3ccc(O)c(O)c3)c3ccccc3)C(=O)N2[C@H]1C(=O)[O-],inactive: -0.686,inactive: -1.29,inactive: 1.3
CCc1c(C(=O)NN2CCCCC2)nn(-c2ccc(Cl)cc2Cl)c1-c1ccc(Br)cc1 [Surinabant],inactive: -1.44,–,inactive: 1.58
COCCN1CCC(N(Cc2ccc(-c3ccc(C(F)(F)F)cc3)cc2)C(=O)c2ccnc(F)c2)CC1,inactive: 0.0485,inactive: -1.33,inactive: -0.115
COc1ccc2c(c1)C(=O)N(CCc1ccc(S(=O)(=O)NC(=O)NC3CCCCC3)cc1)C(=O)C2(C)C [gliquidone],–,inactive: -1.9,–
COc1ccc2c(c1)C(=O)N(CCc1ccc(S(=O)(=O)NC(=O)NC3CCCCC3)cc1)C(=O)C2(C)C [Gliquidone],inactive: -0.932,–,inactive: -1.24
CC(C)NCC(O)COc1ccc(CCNC(=O)NC(C)C)cc1 (configuration not stated),inactive: 0.277,inactive: 0.182,inactive: -1.35

Structure (SMILES),TEAD-luciferase reporter activity (compound concentration: 200 nM),TEAD-luciferase reporter activity (compound concentration: 2 uM),TEAD-luciferase reporter activity (compound concentration: 10 uM)
O=C1NCCc2[nH]c(-c3ccncc3)cc21 [Cdc7/Cdk9 Inhibitor],inactive: -1.26,inactive: 4.04,inactive: 0.591
CCCCCCCCCCCCCCCC[N+](C)(C)CC [mecetronium ethylsulfate],inactive: -1.38,inactive: -1.86,inactive: -1.34
CCCCC/C=C\C/C=C\C/C=C\CCCCC(=O)OC(COC(=O)CCCCCCC/C=C\C/C=C\CCCCC)COC(=O)CCCCCCC/C=C\C/C=C\CCCCC,inactive: -1.72,inactive: -0.167,inactive: -0.288
Nc1cnc(-c2cc(Cl)cc(Cl)c2Cl)c(N)n1 [Elpetrigine],inactive: -0.564,inactive: -0.294,inactive: 0.229
CCNc1cc(-c2csc(N(C)C(=O)c3ccc(F)cc3)n2)ncn1,inactive: 0.165,inactive: 0.164,inactive: 2.55
COc1cc(N)c(Cl)cc1C(=O)N[C@H]1C[C@H]2CCC[C@@H](C1)N2CC(=O)O,inactive: -2.41,inactive: 0.422,inactive: 1.02
CCCCCCCCCCCCCCCCCCOC[C@H](COP(=O)([O-])OCC[N+](C)(C)C)OC [Edelfosine],inactive: -0.624,–,inactive: -0.929
COc1ccc(CN2CCCC23Cc2ccccc2CNC3=O)cc1OC (configuration not stated),inactive: -0.542,–,inactive: -0.755
Cc1cc(Cl)cc(Cl)c1CN1Cc2ncccc2C1=O,inactive: -1.56,inactive: -1.29,inactive: -0.578
CC(C)(C)c1[nH]cnc1/C=c1\[nH]c(=O)/c(=C/c2ccccc2)[nH]c1=O [plinabulin],inactive: 3.99,active: 9.68,active: 8.96
C[C@@H]1CN(C(=O)c2cc3c(C(=O)OC(C)(C)C)ncn3c3ccc(Cl)cc23)C[C@H](C)N1,inactive: 0.289,inactive: -0.447,inactive: 0.713
NC(CC1CCCCC1)C(=O)N[C@H](CCC(=O)O)C(=O)NCC(=O)O (some centres not stated),inactive: -2,inactive: 0.243,inactive: 0.405
CC(=O)[C@@]12OC(C)(C)O[C@@H]1C[C@H]1[C@@H]3CCC4=CC(=O)CC[C@]4(C)[C@H]3CC[C@@]12C [Algestone Acetonide],inactive: 0.822,inactive: -0.476,inactive: -0.189
COc1cc(F)c(C(C)C)cc1-c1ccc(C(F)(F)F)cc1CN1C(=O)O[C@H](c2cc(C(F)(F)F)cc(C(F)(F)F)c2)[C@@H]1C [anacetrapib],–,inactive: -1.09,–
COc1cc(F)c(C(C)C)cc1-c1ccc(C(F)(F)F)cc1CN1C(=O)O[C@H](c2cc(C(F)(F)F)cc(C(F)(F)F)c2)[C@@H]1C [Anacetrapib/MK-0859],inactive: -0.546,–,inactive: -0.00342
O=c1c(-c2ccc(Cl)cc2)coc2cc(O)ccc12,inactive: 1.75,inactive: 0.0586,active: 18.4
COc1ccc2c(c1)N(c1ccccc1F)C(=O)[C@]2(CCC(=O)O)NC(=O)c1cc2ccccc2cn1,inactive: -0.564,inactive: -0.221,inactive: -0.454
O=C(O)CCCC/C=C(\c1ccccc1)c1cccnc1 [Isbogrel],inactive: -1.47,inactive: -0.529,inactive: 2.47
"O=C(NO)C1(CS(=O)(=O)c2ccc(Oc3ccc(Cl)cc3)cc2)CCOCC1 [transplant therapy, Conatus Pharmaceuticals]",inactive: 1.21,inactive: 0.506,inactive: 0.543
O=C(c1ccc(C(F)(F)F)cc1)N1CCC(N2Cc3ccccc3C2=O)CC1,inactive: -2.54,–,inactive: 0.627
CC(C)NC(=O)[C@H]1CC[C@@H](n2c(NC(=O)c3ccc(F)cc3)nc3ccc(CN4CCC(C(C)(C)O)CC4)cc32)CC1,inactive: -0.855,inactive: -1.54,inactive: 0.0893
COc1cc([C@@H]2CC[C@@H](c3cc(OC)c(OC)c(OC)c3)O2)cc(CNC(=O)N(C)O)c1OCCSc1ccc(Cl)cc1,inactive: 0.317,inactive: -0.0242,inactive: 0.91
O=C(c1ccc2c(c1)OCO2)N1CC2(Cc3ccccc3NC2=O)C1,inactive: -2.97,–,inactive: -1.37
CC(C)(C)CC(=O)N1CCN(c2cc(C(F)(F)F)ccn2)CC1,inactive: -0.838,inactive: 0.282,inactive: -0.246
Cc1nc([N+](=O)[O-])cn1-c1ccc([N+](=O)[O-])cc1 [Nitrefazole],inactive: -0.581,inactive: -1.07,inactive: 0.562

# Reformatted with tabs: part of the list above.
Structure (SMILES)	TEAD-luciferase reporter activity (compound concentration: 200 nM)	TEAD-luciferase reporter activity (compound concentration: 2 uM)	TEAD-luciferase reporter activity (compound concentration: 10 uM)
COc1cc([C@@H]2CC[C@@H](c3cc(OC)c(OC)c(OC)c3)O2)cc(CNC(=O)N(C)O)c1OCCSc1ccc(Cl)cc1	inactive: 0.317	inactive: -0.0242	inactive: 0.91
O=C(c1ccc2c(c1)OCO2)N1CC2(Cc3ccccc3NC2=O)C1	inactive: -2.97	–	inactive: -1.37
